Values of other authors, collected in patent US11801307B2, “Antibody-polymer-drug conjugates” (priority 2016, dated 2023).
At least one structure is not confirmed: it was looked up by name or label, or the drawing left a doubt. Some of these results come from one statement about several compounds together. Where a SMILES comes first, the peptide text is derived from it. [ ]: non-standard residue; d: D form. The star is where a group is joined. Dolaproine = CO[C@@H]([C@@H]1CCCN1)[C@@H](C)C(=O)O; Dil = CC[C@H](C)[C@H](NC)[C@@H](CC(=O)O)OC; X1 = C[C@@H](N*)[C@@H](O)c1ccccc1; NMeV = CN[C@H](C(=O)O)C(C)C

Conditions: cited from earlier work

For `CC[C@H](C)[C@@H]([C@@H](CC(=O)N1CCC[C@H]1[C@H](OC)[C@@H](C)C(=O)N[C@H](C)[C@@H](O)c1ccccc1)OC)N(C)C(=O)[C@@H](NC(=O)[C@@H](NC)C(C)C)C(C)C` [MMAE, auristatin monomethyl ester] (H-[NMeV]V[Dil][Dolaproine]-X1), the IC50 is given as less than 1 nM and the “IC50 lower than that of DOX” value is given as 50-200 folds.
